Experimental findings from the supplement of paper PMC12819154, “High-throughput peptide-centric local stability assay extends protein–ligand identification to membrane proteins, tissues and bacteria” (Nature Structural & Molecular Biology, 2025) are described below.

Chains of the proteins cited; added tags and fusions are not shown. Lines headed by an entry give the natural chain unless they say otherwise; changes in a name come on top.
UniProt Q13838, whole entry: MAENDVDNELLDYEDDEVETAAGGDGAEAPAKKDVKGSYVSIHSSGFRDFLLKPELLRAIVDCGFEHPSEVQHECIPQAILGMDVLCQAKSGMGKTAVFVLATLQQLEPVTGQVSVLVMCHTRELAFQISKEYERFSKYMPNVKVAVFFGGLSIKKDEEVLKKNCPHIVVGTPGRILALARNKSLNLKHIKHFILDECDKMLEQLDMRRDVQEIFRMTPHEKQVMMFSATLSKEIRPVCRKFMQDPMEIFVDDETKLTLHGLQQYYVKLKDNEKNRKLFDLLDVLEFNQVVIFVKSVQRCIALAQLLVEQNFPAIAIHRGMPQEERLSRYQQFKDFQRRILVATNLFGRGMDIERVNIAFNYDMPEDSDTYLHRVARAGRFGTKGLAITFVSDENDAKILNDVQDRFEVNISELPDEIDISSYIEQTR
UniProt Q13595: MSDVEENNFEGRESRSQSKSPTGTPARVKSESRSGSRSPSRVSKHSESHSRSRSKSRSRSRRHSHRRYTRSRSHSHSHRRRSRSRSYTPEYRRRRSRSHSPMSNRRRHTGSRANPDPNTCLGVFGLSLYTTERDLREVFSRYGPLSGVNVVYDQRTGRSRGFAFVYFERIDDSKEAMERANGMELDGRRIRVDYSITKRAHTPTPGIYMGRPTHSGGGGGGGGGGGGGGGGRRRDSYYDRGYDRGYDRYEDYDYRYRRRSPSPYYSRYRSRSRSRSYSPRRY
UniProt Q13686: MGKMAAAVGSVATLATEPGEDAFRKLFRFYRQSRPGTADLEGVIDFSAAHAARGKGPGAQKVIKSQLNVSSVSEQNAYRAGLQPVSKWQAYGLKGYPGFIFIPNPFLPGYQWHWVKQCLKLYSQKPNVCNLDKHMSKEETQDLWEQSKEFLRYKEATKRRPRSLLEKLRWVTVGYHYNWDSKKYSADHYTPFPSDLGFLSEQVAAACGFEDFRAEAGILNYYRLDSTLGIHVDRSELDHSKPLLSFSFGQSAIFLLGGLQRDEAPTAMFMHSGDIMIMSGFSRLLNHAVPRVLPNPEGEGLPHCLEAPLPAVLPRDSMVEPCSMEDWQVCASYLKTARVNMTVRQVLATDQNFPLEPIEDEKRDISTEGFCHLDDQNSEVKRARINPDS
UniProt Q14153: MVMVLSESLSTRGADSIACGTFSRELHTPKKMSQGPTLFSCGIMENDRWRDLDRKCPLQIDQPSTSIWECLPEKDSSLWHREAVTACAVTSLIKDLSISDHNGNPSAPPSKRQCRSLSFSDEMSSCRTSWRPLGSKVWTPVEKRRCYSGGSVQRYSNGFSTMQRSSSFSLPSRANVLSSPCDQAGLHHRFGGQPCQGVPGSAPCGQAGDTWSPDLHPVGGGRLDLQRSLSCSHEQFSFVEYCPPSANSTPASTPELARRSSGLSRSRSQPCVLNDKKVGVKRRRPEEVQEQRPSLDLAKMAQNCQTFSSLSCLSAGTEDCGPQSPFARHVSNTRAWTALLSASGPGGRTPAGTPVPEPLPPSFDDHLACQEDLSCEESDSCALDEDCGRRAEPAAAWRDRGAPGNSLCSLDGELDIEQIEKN
UniProt Q14692: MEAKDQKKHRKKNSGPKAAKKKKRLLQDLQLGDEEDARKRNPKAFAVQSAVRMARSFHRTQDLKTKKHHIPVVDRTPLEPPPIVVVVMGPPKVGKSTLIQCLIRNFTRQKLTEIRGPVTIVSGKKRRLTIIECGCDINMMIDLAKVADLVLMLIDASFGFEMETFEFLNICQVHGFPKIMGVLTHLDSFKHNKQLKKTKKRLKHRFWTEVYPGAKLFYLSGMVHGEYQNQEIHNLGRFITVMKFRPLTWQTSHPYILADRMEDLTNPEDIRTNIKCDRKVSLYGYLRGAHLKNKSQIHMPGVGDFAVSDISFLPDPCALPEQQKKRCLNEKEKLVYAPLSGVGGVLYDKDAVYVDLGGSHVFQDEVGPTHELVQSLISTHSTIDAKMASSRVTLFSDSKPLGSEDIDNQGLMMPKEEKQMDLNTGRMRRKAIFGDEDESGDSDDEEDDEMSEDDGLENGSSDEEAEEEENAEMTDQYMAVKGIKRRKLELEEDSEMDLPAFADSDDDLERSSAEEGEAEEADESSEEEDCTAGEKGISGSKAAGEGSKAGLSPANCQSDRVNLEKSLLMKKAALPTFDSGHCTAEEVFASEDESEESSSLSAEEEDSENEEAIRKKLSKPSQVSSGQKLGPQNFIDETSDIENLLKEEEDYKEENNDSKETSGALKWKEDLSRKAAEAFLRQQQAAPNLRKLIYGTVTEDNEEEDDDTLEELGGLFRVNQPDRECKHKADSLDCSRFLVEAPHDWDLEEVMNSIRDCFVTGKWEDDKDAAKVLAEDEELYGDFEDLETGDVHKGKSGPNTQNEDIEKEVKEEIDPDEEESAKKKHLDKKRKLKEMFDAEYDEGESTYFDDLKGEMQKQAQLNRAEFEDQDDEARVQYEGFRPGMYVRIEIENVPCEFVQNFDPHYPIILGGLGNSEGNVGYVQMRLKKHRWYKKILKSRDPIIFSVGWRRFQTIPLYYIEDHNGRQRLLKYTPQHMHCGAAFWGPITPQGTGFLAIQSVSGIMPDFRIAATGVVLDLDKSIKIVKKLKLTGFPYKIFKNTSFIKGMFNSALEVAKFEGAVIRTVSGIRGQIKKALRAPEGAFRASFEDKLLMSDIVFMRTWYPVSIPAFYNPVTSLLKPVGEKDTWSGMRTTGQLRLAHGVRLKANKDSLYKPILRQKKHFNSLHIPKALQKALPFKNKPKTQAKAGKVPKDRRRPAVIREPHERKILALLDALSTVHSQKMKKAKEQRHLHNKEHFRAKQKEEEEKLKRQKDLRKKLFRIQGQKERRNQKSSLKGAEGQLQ
UniProt Q14653: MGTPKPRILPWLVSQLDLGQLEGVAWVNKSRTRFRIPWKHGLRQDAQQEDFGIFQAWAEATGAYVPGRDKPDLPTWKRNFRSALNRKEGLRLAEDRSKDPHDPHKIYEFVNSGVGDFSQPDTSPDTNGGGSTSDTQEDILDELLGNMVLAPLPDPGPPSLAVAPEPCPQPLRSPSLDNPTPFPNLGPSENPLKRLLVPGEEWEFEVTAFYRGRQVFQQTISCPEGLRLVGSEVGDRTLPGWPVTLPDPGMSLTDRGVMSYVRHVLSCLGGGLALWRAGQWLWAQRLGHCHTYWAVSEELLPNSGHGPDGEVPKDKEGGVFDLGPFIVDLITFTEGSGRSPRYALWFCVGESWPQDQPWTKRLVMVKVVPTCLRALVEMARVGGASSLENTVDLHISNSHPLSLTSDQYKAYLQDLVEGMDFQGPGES
UniProt Q13439: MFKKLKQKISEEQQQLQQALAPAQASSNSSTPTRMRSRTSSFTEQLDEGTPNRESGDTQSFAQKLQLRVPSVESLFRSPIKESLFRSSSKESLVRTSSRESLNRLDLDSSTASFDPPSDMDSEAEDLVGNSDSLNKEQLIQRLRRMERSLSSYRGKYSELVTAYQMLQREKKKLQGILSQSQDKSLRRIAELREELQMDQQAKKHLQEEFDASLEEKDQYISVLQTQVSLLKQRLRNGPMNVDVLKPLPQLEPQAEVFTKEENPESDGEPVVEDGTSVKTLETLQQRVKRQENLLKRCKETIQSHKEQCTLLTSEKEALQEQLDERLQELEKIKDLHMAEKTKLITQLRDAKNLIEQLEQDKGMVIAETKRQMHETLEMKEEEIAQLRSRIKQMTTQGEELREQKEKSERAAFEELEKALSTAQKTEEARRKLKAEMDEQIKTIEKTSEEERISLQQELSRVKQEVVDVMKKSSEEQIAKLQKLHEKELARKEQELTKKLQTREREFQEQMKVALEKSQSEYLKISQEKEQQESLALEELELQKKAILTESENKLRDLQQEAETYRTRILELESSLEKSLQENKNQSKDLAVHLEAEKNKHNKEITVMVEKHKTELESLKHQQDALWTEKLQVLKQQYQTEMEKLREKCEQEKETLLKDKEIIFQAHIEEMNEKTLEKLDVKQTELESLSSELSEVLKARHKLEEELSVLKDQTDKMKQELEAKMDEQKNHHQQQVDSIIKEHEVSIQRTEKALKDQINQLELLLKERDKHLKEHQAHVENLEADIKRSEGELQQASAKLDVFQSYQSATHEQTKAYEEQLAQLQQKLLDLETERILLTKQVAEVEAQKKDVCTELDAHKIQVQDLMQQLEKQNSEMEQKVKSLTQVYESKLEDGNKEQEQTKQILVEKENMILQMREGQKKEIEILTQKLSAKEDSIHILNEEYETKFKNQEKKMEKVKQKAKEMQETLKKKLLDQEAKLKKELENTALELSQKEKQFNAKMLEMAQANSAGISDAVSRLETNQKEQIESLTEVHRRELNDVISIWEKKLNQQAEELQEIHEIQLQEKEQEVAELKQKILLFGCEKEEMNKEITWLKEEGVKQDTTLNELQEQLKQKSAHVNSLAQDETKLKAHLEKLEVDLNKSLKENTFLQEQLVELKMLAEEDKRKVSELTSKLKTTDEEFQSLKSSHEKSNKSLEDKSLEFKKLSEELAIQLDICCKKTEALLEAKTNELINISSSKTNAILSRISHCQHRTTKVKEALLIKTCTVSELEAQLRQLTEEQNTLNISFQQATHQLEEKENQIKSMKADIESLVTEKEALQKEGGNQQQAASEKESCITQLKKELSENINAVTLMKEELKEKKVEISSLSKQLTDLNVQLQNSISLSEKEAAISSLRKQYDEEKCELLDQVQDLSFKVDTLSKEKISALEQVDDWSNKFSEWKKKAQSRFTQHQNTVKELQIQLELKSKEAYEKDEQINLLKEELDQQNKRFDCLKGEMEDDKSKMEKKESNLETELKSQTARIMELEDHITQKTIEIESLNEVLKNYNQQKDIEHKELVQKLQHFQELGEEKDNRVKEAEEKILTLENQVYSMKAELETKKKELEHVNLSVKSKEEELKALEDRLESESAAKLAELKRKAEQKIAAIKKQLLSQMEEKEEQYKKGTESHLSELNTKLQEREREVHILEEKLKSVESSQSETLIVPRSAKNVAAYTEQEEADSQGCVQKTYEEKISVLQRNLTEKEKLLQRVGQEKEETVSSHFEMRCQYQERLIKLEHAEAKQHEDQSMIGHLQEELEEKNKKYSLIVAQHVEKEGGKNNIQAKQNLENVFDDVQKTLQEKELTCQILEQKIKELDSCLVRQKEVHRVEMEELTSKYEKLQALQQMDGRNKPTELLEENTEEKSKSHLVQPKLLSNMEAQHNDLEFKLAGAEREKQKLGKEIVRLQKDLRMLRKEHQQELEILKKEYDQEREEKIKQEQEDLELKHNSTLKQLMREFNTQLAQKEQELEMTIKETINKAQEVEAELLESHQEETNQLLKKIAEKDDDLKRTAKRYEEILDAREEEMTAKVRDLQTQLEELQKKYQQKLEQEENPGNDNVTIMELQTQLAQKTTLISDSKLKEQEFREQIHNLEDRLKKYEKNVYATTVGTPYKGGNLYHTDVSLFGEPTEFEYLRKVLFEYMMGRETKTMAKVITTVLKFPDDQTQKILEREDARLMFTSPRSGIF
UniProt Q13351: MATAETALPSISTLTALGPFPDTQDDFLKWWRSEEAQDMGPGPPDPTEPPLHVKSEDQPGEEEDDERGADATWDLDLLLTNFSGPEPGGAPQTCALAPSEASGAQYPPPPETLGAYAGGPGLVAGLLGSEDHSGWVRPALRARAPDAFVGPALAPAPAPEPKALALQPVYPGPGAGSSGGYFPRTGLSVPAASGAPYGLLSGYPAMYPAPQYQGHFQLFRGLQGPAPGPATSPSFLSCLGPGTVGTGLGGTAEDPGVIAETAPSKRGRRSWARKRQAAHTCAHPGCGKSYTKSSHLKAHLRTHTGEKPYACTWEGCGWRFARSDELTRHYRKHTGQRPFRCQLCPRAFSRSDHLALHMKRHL
UniProt Q13555: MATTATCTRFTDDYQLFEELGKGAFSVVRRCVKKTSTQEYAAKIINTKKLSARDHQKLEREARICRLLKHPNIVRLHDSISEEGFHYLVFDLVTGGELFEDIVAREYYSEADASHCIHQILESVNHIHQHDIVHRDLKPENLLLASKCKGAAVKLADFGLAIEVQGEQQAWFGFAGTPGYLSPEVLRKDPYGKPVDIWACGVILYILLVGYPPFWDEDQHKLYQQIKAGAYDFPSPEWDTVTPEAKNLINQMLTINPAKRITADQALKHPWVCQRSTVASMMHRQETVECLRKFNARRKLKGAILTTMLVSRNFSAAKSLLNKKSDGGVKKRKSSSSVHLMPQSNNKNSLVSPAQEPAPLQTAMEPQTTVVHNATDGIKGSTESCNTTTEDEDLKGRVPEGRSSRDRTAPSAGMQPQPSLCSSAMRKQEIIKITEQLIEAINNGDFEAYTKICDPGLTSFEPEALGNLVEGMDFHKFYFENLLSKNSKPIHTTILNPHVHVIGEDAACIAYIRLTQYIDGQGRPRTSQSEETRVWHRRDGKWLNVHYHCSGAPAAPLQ

This is one part of the list. Small differences around the control level are noise.

Compound in this assay: Cc1nc(Nc2ncc(C(=O)Nc3c(C)cccc3Cl)s2)cc(N2CCN(CCO)CC2)n1 [dasatinib]
Kind of assay: log2 fold change of tryptic peptide abundance, ligand vs vehicle (limited proteolysis) (log2 ratio); higher = more trypsin-susceptible (destabilized). The note with it: ligand concentration: 5 uM; sample: K562 cleared lysate.
With “DDX39B (peptide sequence: DFLLKPELLR, peptide start residue: 48) (UniProt Q13838)”, the log2 fold change is -0.118.

“TRA2A (peptide sequence: VDYSITKR, peptide start residue: 192) (UniProt Q13595)”: the log2 fold change was 0.367.

On to “ALKBH1 (peptide sequence: LYSQKPNVCNLDK, peptide start residue: 121) (UniProt Q13686)”, for which the log2 fold change was -0.404.

For “FAM53B (peptide sequence: YSNGFSTMQR, peptide start residue: 155) (UniProt Q14153)”, the log2 fold change stood at 0.322.

Turning to “BMS1 (peptide sequence: QQQAAPNLR, peptide start residue: 682) (UniProt Q14692)”, the log2 fold change stood at 0.157.

For the target “IRF3 (peptide sequence: HVLSCLGGGLALWR, peptide start residue: 263) (UniProt Q14653)”, the log2 fold change was -0.306.

As for “GOLGA4 (peptide sequence: NKPTELLEENTEEK, peptide start residue: 1894) (UniProt Q13439)”, the log2 fold change came out at 0.271.

As to “SF3B2 (peptide sequence: EHELLEQQKR, peptide start residue: 174) (UniProt Q13435)”, the log2 fold change worked out at 0.122.

For “KLF1 (peptide sequence: QAAHTCAHPGCGK, peptide start residue: 276) (UniProt Q13351)”, the log2 fold change came out at 0.0106.

Turning to “CAMK2G (peptide sequence: KTSTQEYAAK, peptide start residue: 34) (UniProt Q13555)”, the log2 fold change was -0.316.
